{
  "sequences": {"note": "Protein sequences, listed by entry. Tags and fused reporters are not part of them. Lines headed by an entry give the natural chain unless they say otherwise; changes in a name come on top.", "UniProt P18054": "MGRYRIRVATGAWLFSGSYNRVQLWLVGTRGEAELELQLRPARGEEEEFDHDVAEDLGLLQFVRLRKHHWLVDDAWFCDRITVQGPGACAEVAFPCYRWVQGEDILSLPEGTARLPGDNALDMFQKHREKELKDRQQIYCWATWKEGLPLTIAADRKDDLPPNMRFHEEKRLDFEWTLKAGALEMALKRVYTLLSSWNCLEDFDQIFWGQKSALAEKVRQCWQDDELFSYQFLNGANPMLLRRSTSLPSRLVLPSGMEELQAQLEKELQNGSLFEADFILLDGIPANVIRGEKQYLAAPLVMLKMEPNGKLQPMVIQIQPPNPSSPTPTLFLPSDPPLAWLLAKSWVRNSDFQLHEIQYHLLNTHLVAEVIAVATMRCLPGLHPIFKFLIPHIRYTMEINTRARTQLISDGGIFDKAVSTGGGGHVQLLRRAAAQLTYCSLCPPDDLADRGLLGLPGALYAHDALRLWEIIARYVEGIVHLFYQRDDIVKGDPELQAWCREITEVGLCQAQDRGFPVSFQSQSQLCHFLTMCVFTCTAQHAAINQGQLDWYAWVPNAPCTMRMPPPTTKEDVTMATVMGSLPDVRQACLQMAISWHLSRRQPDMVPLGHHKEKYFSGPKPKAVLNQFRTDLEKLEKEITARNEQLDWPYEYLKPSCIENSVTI"},
  "source": "PubChem BioAssay AID1671190",
  "about": "(National Center for Advancing Translational Sciences (NCATS), 2021)",
  "note": "Hit rate of the full screen: of about 580,000 compounds, about 6,100 (1.1%) were called active. The inconclusive results got no clear call from the source; some entries with a clear call stand among them for comparison. The call rests on the fitted dose curve; in most records, active means well fitted inhibition curve with a large enough effect; inconclusive means small, poorly fitted or top-dose-only effect, or another doubt; inactive means no such curve, though single readings can be large or run the other way. Potencies beside an inconclusive call are fits to weak or partial responses and may not hold up. Potency means the concentration at half of the fitted maximal effect.",
  "data": [
    {"biological_target": "Polyunsaturated fatty acid lipoxygenase ALOX12 (Homo sapiens) (UniProt P18054)", "assay": "Primary qHTS assay for inhibitors of human arachidonate 12S-lipoxygenase (ALOX12): Round 2", "conditions": "purified 12hLO, xylenol orange hydroperoxide absorbance; series mostly up to 108 µM", "in_short": "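Hydroperoxide product was detected by ferrous iron/xylenol orange as the 573 to 405 nm absorbance ratio. Arachidonic acid at 40 uM (final) was turned over for 30 min at room temperature by 150 nM human 12hLO, pH 7.0 Hepes buffer, after 15 min compound preincubation.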", "values": [
      {"smiles": "COc1cc(Cl)c(NS(=O)(=O)c2cc(-c3n[nH]c(=O)c4c3CCCC4)ccc2C)c(OC)c1", "Potency": "inconclusive: 79.4 µM [inhibitor, partial curve, poor fit]"},
      {"smiles": "Cc1ccc(Cn2c(=O)sc3ccccc3c2=O)cc1", "Potency": "inactive"},
      {"smiles": "COc1cc2c(c(OC)c1OC)-c1c(cc(OC)c(OC)c1OC)C[C@H](C)[C@H](C)C2", "Potency": "inactive"},
      {"smiles": "C=CCn1c(C)cc(C(=O)COc2ccc3ccc(=O)oc3c2)c1C", "Potency": "inconclusive: 7.08 µM [inhibitor, full curve, poor fit]"},
      {"smiles": "O=C(O)Cn1c(-c2ccccn2)nc2ccccc21", "Potency": "inconclusive: 0.355 µM [inhibitor, full curve, poor fit]"},
      {"smiles": "CC(C)(C)OC(=O)NCCCCCNC(=O)c1nc[nH]c1C(=O)N1CCN(C(=O)OC(C)(C)C)CC1", "Potency": "inconclusive: 158 µM [inhibitor, single point]"},
      {"smiles": "Cc1cc(C(=O)O)c(=O)[nH]c1C", "Potency": "inconclusive: 1.58 µM [inhibitor, full curve, poor fit]"},
      {"smiles": "N#Cc1c2c(c3nncn3c1NCc1ccncc1)CN(Cc1ccccc1)CC2", "Potency": "inconclusive: 25.1 µM [inhibitor, single point]"},
      {"smiles": "COC(=O)/C=C1\\S/C(=N/NC(=O)c2ccccc2)NC1=O", "Potency": "inactive"},
      {"smiles": "CC(NC(=O)CSc1n[nH]c(=O)n1C1CC1)C12CC3CC(CC(C3)C1)C2", "note": "(stereo not given)", "Potency": "inconclusive: 44.7 µM [inhibitor, partial curve, poor fit]"},
      {"smiles": "COC(CN1CCc2c(C)nc3c(C#N)cnn3c21)OC", "Potency": "inactive"},
      {"smiles": "C[C@@H]1CNCCN1S(=O)(=O)c1cccc2cnccc12", "Potency": "inconclusive: 7.08 µM [inhibitor, full curve, poor fit]"},
      {"smiles": "COc1ccc2cc(C3CN(C(=O)c4cccc(CO)c4)CCO3)ccc2c1", "note": "(stereo not given)", "Potency": "inactive"},
      {"smiles": "Cc1ccc(Nc2cc(C)nc3nc(-c4ccco4)nn23)c(Cl)c1", "Potency": "inconclusive: 44.7 µM [inhibitor, partial curve, poor fit]"},
      {"smiles": "Cc1cc2oc(=O)cc(CN3CCCC(C)C3)c2cc1C", "note": "(stereo not given)", "Potency": "inconclusive: 35.5 µM [inhibitor, partial curve, poor fit]"},
      {"smiles": "CSc1ccc(CN2CCN(C(=O)c3ccc([N+](=O)[O-])cc3)CC2)cc1", "Potency": "inconclusive: 1.58 µM [inhibitor, full curve]"},
      {"smiles": "Clc1cccc(CN2CCCCCCC2)c1Cl", "Potency": "inconclusive: 2.24 µM [inhibitor, full curve, poor fit]"},
      {"smiles": "COc1ccc(CN2CCC[C@]3(N[C@H](c4ccccc4)[C@@H]4C(=O)N(C)C(=O)[C@@H]43)C2=O)cc1", "Potency": "inconclusive: 12.6 µM [inhibitor, full curve]"},
      {"smiles": "CCOC(=O)c1scc(-c2ccccc2)c1S(=O)(=O)Nc1ccccc1OC", "Potency": "inconclusive: 15.8 µM [inhibitor, partial curve, poor fit]"},
      {"smiles": "CN1C(=O)C(=O)/C(=C(/O)c2ccccc2)C1c1ccc(Br)cc1", "note": "(stereo not given)", "Potency": "inconclusive: 31.6 µM [inhibitor, partial curve, poor fit]"},
      {"smiles": "CC1=NN(c2ccccc2)C(=O)C1=Cc1ccccc1", "Potency": "inconclusive: 44.7 µM [inhibitor, partial curve, poor fit]"},
      {"smiles": "COc1cccc(CCC(=O)N2CCC(Oc3ccc(-c4noc(C5CC5)n4)cc3)C2)c1", "note": "(stereo not given)", "Potency": "inconclusive: 35.5 µM [inhibitor, partial curve]"},
      {"smiles": "O=C(CC(C(=O)O)c1ccc(Cl)cc1)c1ccc(Br)cc1", "note": "(stereo not given)", "Potency": "inconclusive: 35.5 µM [inhibitor, single point]"},
      {"smiles": "CCOC(=O)c1ccc(N2CCN(C(C)=O)CC2)c(NC(=O)c2ccc(-c3ccccc3)cc2)c1", "Potency": "inconclusive: 39.8 µM [inhibitor, partial curve, poor fit]"},
      {"smiles": "COc1ccc(-c2nc3cc(NC(=O)CC(C)C)ccc3o2)cc1Cl", "Potency": "inactive"},
      {"smiles": "COc1ccc(-c2cn(C3CCN(C(=O)c4ccc(Cl)cc4)CC3)c(=O)[nH]2)cc1", "Potency": "inconclusive: 50.1 µM [inhibitor, partial curve, poor fit]"},
      {"smiles": "CCNS(=O)(=O)c1ccc(NC(=O)C2c3ccccc3Oc3ccccc32)cc1", "Potency": "inconclusive: 14.1 µM [inhibitor, full curve, poor fit]"},
      {"smiles": "COC(=O)[C@@]1(Sc2ccc(C)cc2)CC(=O)N[C@@H]1c1ccc(Br)cc1", "Potency": "inconclusive: 50.1 µM [inhibitor, partial curve, poor fit]"},
      {"smiles": "S=c1[nH]nc(-c2ccco2)n1/N=C/C(Cl)=C/c1ccccc1", "Potency": "inconclusive: 39.8 µM [inhibitor, partial curve, poor fit]"},
      {"smiles": "COC(=O)C1=C(C)N(c2ccc3c(c2)OCO3)C(=O)NC1c1c(F)cccc1Cl", "note": "(stereo not given)", "Potency": "inconclusive: 100 µM [inhibitor, single point]"},
      {"smiles": "Cc1ncsc1CN1CCC(C2CCN(S(C)(=O)=O)CC2)C1", "note": "(stereo not given)", "Potency": "inactive"},
      {"smiles": "COc1ccc(-n2c(C)c(C)c3c2ncn2nc(-c4cccs4)nc32)cc1", "Potency": "inactive"},
      {"smiles": "COc1ccc(/C=N/n2c(SC)nnc2-c2ccccc2)c(OC)c1OC", "Potency": "inactive"},
      {"smiles": "Cc1ccc(CSc2nnc(-c3ccncc3)n2C)cc1", "Potency": "inactive"},
      {"smiles": "O=C(NC1CCCc2ccccc21)c1cc2c(s1)CCC2", "note": "(stereo not given)", "Potency": "inconclusive: 35.5 µM [inhibitor, partial curve, poor fit]"},
      {"smiles": "Cc1ccc(CNc2nc(-c3ccco3)nn2C(=O)c2ccccc2[N+](=O)[O-])cc1", "Potency": "inconclusive: 35.5 µM [inhibitor, partial curve, poor fit]"},
      {"smiles": "Cc1ccc(CN2C(=O)C(O)(C3C(=O)N(C)c4ccccc43)c3ccccc32)cc1", "note": "(stereo not given)", "Potency": "inconclusive: 35.5 µM [inhibitor, partial curve, poor fit]"},
      {"smiles": "Cc1ccc(-n2nnc(C(=O)NCC(C)C)c2C)cc1Cl", "Potency": "inactive"},
      {"smiles": "Cc1ccc(NS(=O)(=O)c2ccc(N/N=C/c3ccccc3OCC(=O)O)c([N+](=O)[O-])c2)c(C)c1", "Potency": "inconclusive: 44.7 µM [inhibitor, partial curve, poor fit]"},
      {"smiles": "Cc1ccc(NC(=O)NCCCNc2ccccc2)cc1NC(=O)NCCCNc1ccccc1", "Potency": "inconclusive: 44.7 µM [inhibitor, partial curve]"}
    ]}
  ]
}
